Assay results published in patent US20100316644A1 (ACCELERON PHARMA, published 2010).
Results are given in words; binding and its absence hold for the method and conditions named. Some results given as binding are weak or reduced against the parent protein; the word gives no strength.

Molecular target: T1, Growth-and-Differentiation Factor-3 (GDF3) (UniProt Q9NR23)
T1 sequence (looked up): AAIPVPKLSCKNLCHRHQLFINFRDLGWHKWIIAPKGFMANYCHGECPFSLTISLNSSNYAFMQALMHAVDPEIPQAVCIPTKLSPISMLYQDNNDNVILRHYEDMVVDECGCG
Assay: Biacore (data not shown)

binding: binds
B1: ActRIIB(20-134)-hFc (Fc fusion, not shown: a dimerising Fc or GST)
chain: GRGEAETRECIYYNANWELERTNQSGLERCEGEQDKRLHCYASWRNSSGTIELVKKGCWLDDFNCYDRQECVATEENPQVYFCCCEGNFCNERFTHLPEAGGPEVTYEPPPTAPT
notes: The residue range comes from the construct name; also called full-length counterpart ActRIIB(20-134)-hFc
